Results taken from article PMC3009601, “Structural Basis for Apoptosis Inhibition by Epstein-Barr Virus BHRF1” (PLoS Pathogens, 2010).
No constants are given. Whether binding was seen depends on the method and setting.

B1: mouse Mule BH3 peptide (residues 1969-1994) (peptide)
peptide: PGGTTQEVGQLLQDMGDDVYQQYRSL
B2: mmBeclin BH3 peptide (residues 103-128) (peptide)
peptide: DGGTMENLSRRLKVTGDLFDIMSGQT

Biological target: BHRF1ΔC31 (Epstein-Barr virus) (UniProt P03182)
Test: ITC; VP-ITC (MicroCal), recombinant BHRF1ΔC31 with BH3 domain peptides; Kd values are the means of 3 experiments ± SD; both purified

Row | Binder | binding
1 | B1 | no binding
2 | B2 | no binding
